In patent US20190375824A1 (PANASONIC INTELLECTUAL PROPERTY MANAGEMENT, published 2019):
Results are given in words; binding and its absence hold for the method and conditions named. Some binding calls cover weakened binding; strength is not graded here.

The chains behind the UniProt entries cited, without tags or fusion partners. Residues count along the entry.
UniProt P02768, residues 25-609: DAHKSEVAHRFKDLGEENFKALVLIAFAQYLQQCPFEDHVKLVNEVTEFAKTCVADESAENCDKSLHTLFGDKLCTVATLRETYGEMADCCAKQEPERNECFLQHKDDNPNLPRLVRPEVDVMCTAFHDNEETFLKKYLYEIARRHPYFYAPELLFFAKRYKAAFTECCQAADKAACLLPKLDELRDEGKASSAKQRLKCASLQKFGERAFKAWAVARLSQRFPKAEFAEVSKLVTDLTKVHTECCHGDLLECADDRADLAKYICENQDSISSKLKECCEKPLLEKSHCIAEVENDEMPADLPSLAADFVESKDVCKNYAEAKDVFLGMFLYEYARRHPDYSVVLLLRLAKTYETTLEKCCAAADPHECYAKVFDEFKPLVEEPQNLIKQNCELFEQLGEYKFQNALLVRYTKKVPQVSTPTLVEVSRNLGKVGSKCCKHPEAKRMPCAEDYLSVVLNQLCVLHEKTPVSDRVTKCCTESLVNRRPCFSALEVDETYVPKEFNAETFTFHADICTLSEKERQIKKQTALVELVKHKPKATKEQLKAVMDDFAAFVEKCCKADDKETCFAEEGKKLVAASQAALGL

Biological target: T1, human serum albumin (human, UniProt P02768 25-609)
T1 construct: Antigen in the SPR assay
Experiment: SPR

binding: binds
B1: VHH antibody in which glycine in position 78 of SEQ ID NO: 1 was substituted with alanine (SEQ ID NO: 5) (VHH)
VHH: QVQLVESGGGLVQAGDSLRLSCAASGRTFSGYAMGWFRQAPGKEREFVARINWSGTLTYYADSVKGRFTASRDNAKNTVYLQMNSLKPEDTAVYYCAQRGDSGSNYDPSGYSYWGQGTQVTVSS
notes: Expressed in E. coli; also called G78A mutant
